# Data as given in PubChem BioAssay AID493014 (National Center for Advancing Translational Sciences (NCATS), 2011).
# Some of the results follow. The main result of the screen is listed elsewhere. These columns were measured beside it and carry no call. Compounds called inactive in the main read-out are mostly missing here. Potencies come from curve fits of mixed quality, noted in brackets.
# Assay: qHTS Assay to Find Inhibitors of Chronic Active B-Cell Receptor Signaling
# Settings: ABC-DLBCL IkBa-CBG/CBR reporter, luminescence ratio (green luciferase fused to IkBa over red control in TMD8 lymphoma cells), 4 h
# How it was run: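 Cell line TMD8 (human ABC DLBCL), stably expressing tet-inducible CBG68-IkBa fusion and CBR; IMDM/0.5% FBS; cpd up to 46 uM; dox induction, 4 h, 37C/5% CO2; dual luminescence; green/red ratio; MG132 control.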
# [1] = measured here: CBR red luminescence, cell number
# [2] = measured here: IkBa-CBG green luminescence
structure (smiles),measurement,setting,value
CCOC(=O)[C@H]1[C@H]2COc3ccc(C)cc3[C@@H]2N2C(=O)c3ccc(C)cc3NC(=O)[C@@]12C,AC50,[1],"16.4 µM [falling, single point]"
Cc1cc(C)nc(NNC2=CC(=O)CC(C)(C)C2)n1,AC50,[1],"7.94 µM [falling, partial curve]"
C[C@@H](C(=O)NCCc1c[nH]c2ccccc12)[C@@H]1C[C@@]1(C)[C@@H](NC(=O)OCc1ccccc1)c1ccccc1,AC50,[1],"16.4 µM [falling, single point]"
COC(=O)Nc1ccc(S(=O)(=O)N2CCCC(C(=O)Nc3cccc4c3OCCO4)C2)cc1 (configuration not stated),AC50,[1],"0.731 µM [rising, full curve, poor fit]"
Cc1ccc(Nc2c([N+](=O)[O-])c(=O)n(C)c3ccccc23)cc1,AC50,[1],"2.82 µM [falling, partial curve, poor fit]"
CN(C)S(=O)(=O)c1cc(NC(=O)c2cc(=O)c3ccccc3o2)ccc1Cl,AC50,[1],"22.4 µM [falling, single point]"
CCOC(=O)c1c(C2CC2)csc1NC(=O)COC(=O)c1ccc[n+]([O-])c1,AC50,[1],"32.6 µM [falling, partial curve, poor fit]"
C=CCn1c(-c2cc(OC)c(OC)c(OC)c2)n[nH]c1=S,AC50,[1],"29.1 µM [rising, single point]"
CC1CCC2(CC1)NC(=O)N(CC(=O)c1ccc[nH]1)C2=O (configuration not stated),AC50,[1],"0.517 µM [falling, full curve]"
COc1cc2cc(C(=O)O)n(C)c2c(OC)c1OC,AC50,[1],"17.8 µM [rising, partial curve, poor fit]"
Cc1noc(C)c1COc1cccc(C(=O)Nc2ccccc2)c1,AC50,[1],"8.2 µM [rising, partial curve, poor fit]"
CCOC(=O)CN(C(=O)COc1ccc2c(C)cc(=O)oc2c1)c1ccc(OCC)cc1,AC50,[1],"35.5 µM [rising, partial curve, poor fit]"
CSc1ccc(C(=O)N2CCC(n3nccc3NC(=O)C3CC3)CC2)cc1,AC50,[1],"31.6 µM [rising, single point]"
Fc1c(F)c(F)c(CSc2nc3ccccc3[nH]2)c(F)c1F,AC50,[1],"3.66 µM [falling, partial curve, poor fit]"
S=c1[nH]ncn2c1cc1oc3ccccc3c12,AC50,[1],"0.631 µM [rising, partial curve, poor fit]"
CNC(=S)N1N=C2c3ccccc3CCC2C1c1ccccc1Cl (configuration not stated),AC50,[1],"2.82 µM [falling, partial curve, poor fit]"
COC(=O)C(CCSC)NC(=O)c1cc2c(n(-c3ccccc3)c1=O)CCCC2=O (configuration not stated),AC50,[1],"22.4 µM [falling, partial curve]"
COc1ccc(CNC(=O)NCCc2c[nH]c3ccccc23)cc1,AC50,[1],"35.5 µM [falling, single point]"
COCCN(Cc1cc2cc3c(cc2nc1Cl)OCO3)C(=O)c1ccc(C)cc1,AC50,[1],"8.91 µM [falling, partial curve]"
COc1ccc(C(=O)CCC(=O)Nc2ccccc2C)cc1,AC50,[1],"20 µM [falling, partial curve, poor fit]"
Nc1ccc2cn[nH]c2c1,AC50,[1],"17.8 µM [falling, single point]"
Cn1c(=O)c2c(nc(SCCN3CCOCC3)n2Cc2ccccc2)n(C)c1=O,AC50,[1],"29.1 µM [falling, partial curve, poor fit]"
COc1ccc(/C=N/NC(=O)c2nn(C)cc2Br)cc1CSCc1ccco1,AC50,[1],"17.8 µM [falling, partial curve, poor fit]"
CCOc1ccccc1NC(=O)Nc1ccc(OC)nc1,AC50,[1],"1 µM [falling, full curve, poor fit]"
NC(=O)c1ccccc1NC(=S)NC(=O)CCc1ccccc1,AC50,[1],"20.6 µM [rising, partial curve]"
same,AC50,[2],"20.6 µM [falling, single point]"
CN(C)S(=O)(=O)N1CCC(Oc2cccc(C(=O)NCCC3=CCCCC3)c2)CC1,AC50,[1],"2.82 µM [falling, full curve]"
CC(C)C[C@H](NC(=O)c1[nH]cnc1C(=O)N[C@@H](C)c1ccccc1)C(=O)OC(C)(C)C,AC50,[1],"35.5 µM [falling, single point]"
COc1cc(SC#N)ccc1N=Cc1c(C)[nH]n(-c2ccc(Cl)cc2)c1=O,AC50,[1],"0.316 µM [rising, full curve, poor fit]"
Cc1ncoc1C(=O)Nc1ncc([N+](=O)[O-])s1,AC50,[1],"8.91 µM [falling, partial curve, poor fit]"
Cc1onc(-c2ccccc2Cl)c1C(=O)Nc1nnc(-c2ccc(F)cc2)s1,AC50,[1],"2.59 µM [rising, partial curve]"
CCOc1ccccc1OCCCC(=O)Nc1cccc(-n2cnnn2)c1C,AC50,[1],"9.2 µM [rising, partial curve, poor fit]"
Cc1ccc(NC(=O)c2ccc(NS(=O)(=O)/C=C/c3ccccc3)cc2)nc1,AC50,[1],"35.5 µM [falling, single point]"
O=C(Nc1ccc(Cl)cc1)OCc1cn(-c2ccccc2)nn1,AC50,[1],"5.01 µM [rising, partial curve, poor fit]"
COc1ccccc1-n1nnnc1SCc1cc2c(cc1Br)OCO2,AC50,[1],"29.1 µM [rising, single point]"
CCc1ccc(NC(=O)c2ccc(S(=O)(=O)NCc3cccnc3)cc2)cc1,AC50,[1],"10 µM [rising, partial curve]"
COc1ccc([C@]2(C(C)C)ON(c3ccccc3C(F)(F)F)C2=O)cc1,AC50,[1],"23.1 µM [falling, single point]"
CCOc1ncccc1C(=O)Nc1ccc(Cl)c(S(=O)(=O)N2CCCC2)c1,AC50,[1],"3.16 µM [falling, partial curve, poor fit]"
same,AC50,[2],"0.631 µM [rising, full curve, poor fit]"
CCCCCCN1N=C(C)C(C(=O)c2ccc(Cl)cc2)C1=O (configuration not stated),AC50,[1],"20 µM [falling, single point]"
OCC1(Cc2cccc(F)c2)CCN(Cc2ccc3cccc(F)c3n2)CC1,AC50,[1],"35.5 µM [falling, single point]"
CCOc1ccccc1C1c2[nH]c3ccccc3c2C[C@H]2C(=O)N(C3CCN(Cc4ccccc4)CC3)CC(=O)N12 (some centres not stated),AC50,[1],"5.01 µM [falling, full curve, poor fit]"

# Another view of some results above:
structure (smiles)	measurement	setting	value
COc1ccccc1-n1nnnc1SCc1cc2c(cc1Br)OCO2	AC50	[1]	29.1 µM [rising, single point]
CCc1ccc(NC(=O)c2ccc(S(=O)(=O)NCc3cccnc3)cc2)cc1	AC50	[1]	10 µM [rising, partial curve]
COc1ccc([C@]2(C(C)C)ON(c3ccccc3C(F)(F)F)C2=O)cc1	AC50	[1]	23.1 µM [falling, single point]
CCOc1ncccc1C(=O)Nc1ccc(Cl)c(S(=O)(=O)N2CCCC2)c1	AC50	[1]	3.16 µM [falling, partial curve, poor fit]
